Experimental data reported in patent US20090010923A1, “TREATMENT OF CANCER WITH ANTI-MUSCARINIC RECEPTOR AGENTS” (University of Maryland, Baltimore, priority 2007, published 2009).

System: muscarinic receptor subtypes
Details: in vitro

CN1[C@@H]2C[C@@H](OC(=O)[C@H](CO)c3ccccc3)C[C@H]1[C@@H]1O[C@@H]12 [scopolamine]
attenuation of bile acid actions: attenuated
